Data as given in PubChem BioAssay AID1671190 (National Center for Advancing Translational Sciences (NCATS), 2021).
Out of some 580,000 compounds screened, about 6,100 (1.1%) were called active. The shares of active, inactive and inconclusive entries below differ from those in the screen. Calls follow the shape of the dose curve; as a rule, active = well fitted inhibition curve with a large enough effect; inconclusive = small, poorly fitted or top-dose-only effect, or another doubt; inactive = no such curve, though single readings can be large or run the other way. Potencies of inconclusive entries are doubtful fits and often do not repeat.

Protein sequences, listed by entry. Tags and fused reporters are not part of them. Lines headed by an entry give the natural chain unless they say otherwise; changes in a name come on top.
UniProt P18054: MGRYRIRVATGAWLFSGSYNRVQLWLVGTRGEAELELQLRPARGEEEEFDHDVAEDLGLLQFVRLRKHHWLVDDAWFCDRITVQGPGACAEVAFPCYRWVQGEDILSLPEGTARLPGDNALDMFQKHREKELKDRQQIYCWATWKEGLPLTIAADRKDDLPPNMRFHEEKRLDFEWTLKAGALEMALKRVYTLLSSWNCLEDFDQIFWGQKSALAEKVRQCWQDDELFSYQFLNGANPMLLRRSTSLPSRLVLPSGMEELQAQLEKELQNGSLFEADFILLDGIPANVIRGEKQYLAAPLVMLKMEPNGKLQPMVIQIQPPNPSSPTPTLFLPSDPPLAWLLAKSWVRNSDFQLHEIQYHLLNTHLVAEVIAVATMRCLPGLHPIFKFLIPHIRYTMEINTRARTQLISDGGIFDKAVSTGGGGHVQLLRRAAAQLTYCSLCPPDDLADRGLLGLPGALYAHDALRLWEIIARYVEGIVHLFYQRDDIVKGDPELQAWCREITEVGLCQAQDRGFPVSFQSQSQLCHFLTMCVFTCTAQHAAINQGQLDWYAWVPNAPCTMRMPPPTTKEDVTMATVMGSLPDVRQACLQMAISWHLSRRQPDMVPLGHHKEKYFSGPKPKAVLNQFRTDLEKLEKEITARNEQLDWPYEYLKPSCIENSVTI

Target: Polyunsaturated fatty acid lipoxygenase ALOX12 (Homo sapiens) (UniProt P18054)
Experiment: Primary qHTS assay for inhibitors of human arachidonate 12S-lipoxygenase (ALOX12): Round 2
Details: purified 12hLO, xylenol orange hydroperoxide absorbance; series mostly up to 108 µM
In short: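 Purified human 12hLO at 150 nM in 25 mM Hepes, 0.01% Triton X-100, pH 7.0, preincubated 15 min at room temperature with compound. Reaction started with 40 uM arachidonic acid, 30 min at room temperature. Hydroperoxide measured by Fe-xylenol orange, 573/405 nm absorbance ratio.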
Potency is read from the fitted curve at half-maximal effect.

| Structure (SMILES) | Potency |
| --- | --- |
| O=C(Cc1ccsc1)NCC(=O)Nc1ccc(F)c(F)c1 | inconclusive: 50.1 µM [inhibitor, partial curve, poor fit] |
| CC(=O)c1cccc(NS(=O)(=O)c2cc(-c3onc(C)c3C)ccc2C)c1 | inconclusive: 63.1 µM [inhibitor, partial curve, poor fit] |
| Cn1c(C=C(C#N)C#N)ccc1-c1cc(Cl)ccc1Cl | inconclusive: 44.7 µM [inhibitor, partial curve, poor fit] |
| O=C(c1ccc(Cl)c(S(=O)(=O)N2CCOCC2)c1)N1CCOCC1 | inactive |
| Cc1ccc(CNc2nc(N)c([N+](=O)[O-])c(Nc3ccc(Cl)cc3)n2)cc1 | inactive |
| O=C(Nc1ccccc1Oc1cccnc1)C1CCCN(C/C=C/c2ccccc2)C1 (stereo not drawn) | inactive |
| CN(c1ccccc1)S(=O)(=O)c1cccc(NC(=O)CCNC(=O)c2ccc(Cl)cc2)c1 | inconclusive: 112 µM [inhibitor, single point] |
| NC(Cc1ccc(F)cc1)c1csc(NC(=O)NC(c2ccccc2)c2ccccc2)n1 (stereo not drawn) | inconclusive: 63.1 µM [inhibitor, partial curve, poor fit] |
| CN(CC(=O)Nc1ccccc1Br)CC(=O)Nc1ccccc1C(F)(F)F | inactive |
| CNC(=O)CNC(=O)c1cc(-c2cccs2)nc2ccccc12 | inconclusive: 35.5 µM [inhibitor, partial curve, poor fit] |
| Cc1ccc(S(=O)(=O)N2CCN(C3CCN(Cc4ccccc4)CC3)CC2)cc1 | inconclusive: 2.82 µM [inhibitor, full curve, poor fit] |
| O=C(c1cccc(Br)c1)N1CCN(c2cc(-c3ccc(Cl)cc3)[nH]n2)CC1 | inactive |
| CCC(C)NC(=O)C(NC(=O)c1ccc(C)cc1)C1CCN(C(=O)C(C)C)CC1 (stereo not drawn) | inactive |
| Cc1onc(-c2c(Cl)cccc2Cl)c1C(=O)NN1CCCCCC1 | inconclusive: 3.16 µM [inhibitor, full curve, poor fit] |
| Cc1ccc(-c2cc(C(=O)OCC(=O)N(C)c3c(N)n(Cc4ccccc4)c(=O)[nH]c3=O)c3ccccc3n2)o1 | active: 7.08 µM |
| CCN(CC)C(=O)[C@@H]1CCC[C@@H](NS(C)(=O)=O)CN(C)C(=O)C1 | inactive |
| CCCCCCn1c(=O)c(-c2ccccc2)c(O)c2ccccc21 | inconclusive: 63.1 µM [inhibitor, partial curve, poor fit] |
| CCOc1ccccc1NC(=O)CSc1nc2c(sc3ccccc32)c(=O)n1CCCC(=O)NC1CCCC1 | inconclusive: 126 µM [inhibitor, single point] |

An excerpt from above in order of SMILES length, smallest number first:

| Structure (SMILES) | Potency |
| --- | --- |
| CNC(=O)CNC(=O)c1cc(-c2cccs2)nc2ccccc12 | inconclusive: 35.5 µM [inhibitor, partial curve, poor fit] |
| CCC(C)NC(=O)C(NC(=O)c1ccc(C)cc1)C1CCN(C(=O)C(C)C)CC1 (stereo not drawn) | inactive |
| Cc1ccc(CNc2nc(N)c([N+](=O)[O-])c(Nc3ccc(Cl)cc3)n2)cc1 | inactive |
